# In the supplement of paper PMC3334620:
# In all, about 33,000 sequences were measured (“E-score (-0.5 to 0.5)”: median about -8e-05, highest 2% from about 0.23 on). The list shows a part of the results.
# Target: T1, Nrg2 (UniProt P38082)
# T1 sequence: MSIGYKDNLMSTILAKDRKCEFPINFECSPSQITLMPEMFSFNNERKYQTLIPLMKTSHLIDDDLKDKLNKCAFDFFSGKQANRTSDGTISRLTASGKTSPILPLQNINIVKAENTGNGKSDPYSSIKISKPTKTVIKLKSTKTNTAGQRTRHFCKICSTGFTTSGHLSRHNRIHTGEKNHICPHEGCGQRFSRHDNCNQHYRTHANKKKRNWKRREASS
# Assay: PBM E-score (8-mer binding enrichment) (E-score (-0.5 to 0.5)); higher = stronger / more preferred TF binding
# Conditions: protein concentration: 100 nM; construct: GST-full length
# Summary of the method: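 Each ungapped eight-base word and its reverse complement, pooled, received an E-score from the Universal PBM Analysis Suite. Underlying scans, normalised with masliner, recorded fluorescent anti-GST bound to GST-tagged yeast transcription factors. These were applied at about 100-200 nM to universal all-10-mer Agilent arrays double-stranded by primer extension.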
row,Sequence,PBM E-score
1,ACGTCATG,-0.0113
2,ATTACGCG,0.129
3,CGGGTAAC,-0.096
4,ACCAGCGA,-0.0782
5,GCAATCGA,0.0467
6,ATCCTCAA,-0.0476
7,CAGCCGCA,0.0215
8,ACAAGGGT,0.189
9,AGTAGCAC,-0.0195
10,TCATGGAA,0.135
11,GGAACTCA,-0.0697
12,ACATGGGT,0.0938
13,TCATAGGA,0.147
14,CTGACCGC,0.105
15,AAGGATAG,-0.0667
16,TAAAGAAA,0.192
17,AGCTACGC,0.0344
18,ACGAACGC,0.267
19,ACGTTAGG,-0.123
20,ACTGAAAA,0.0324
21,ATCACCAG,0.073
22,GGTAGTCA,-0.0996
23,CGCGGATA,0.246
24,CTTAGCTA,-0.0163
25,ACGCCTCG,-0.0727

# 3 records picked at random from those above, as already listed:
row,Sequence,PBM E-score
13,TCATAGGA,0.147
1,ACGTCATG,-0.0113
12,ACATGGGT,0.0938

# (cont.)

row,Sequence,PBM E-score
1,CTTCTCTC,-0.0976
2,GCGTTGTA,0.0316
3,CCATGAAA,0.189
4,CTAGCCAC,-0.25
5,GTGGGCGA,-0.029
6,GTATTCGA,0.0096
7,ACGGATCT,-0.128
8,CCGGAGAC,-0.0842
9,ACAGACCA,0.201
10,ATAGAACC,0.036
11,ACTAGTAT,0.246
12,CAGAGGAC,-0.0554
13,ACTATATC,0.182
14,GTCGGATA,0.0362
15,CGAGGCCA,0.02
16,ATGGAGAG,-0.139
17,CATAGCTA,-0.0383
18,AATCTCCT,-0.09
19,AGGCGACG,0.122
20,GGGGACCC,0.143
21,CCCGTGAC,-0.114
22,GATTGCGC,0.0579
23,TCAGTCAA,-0.0607
24,ACAGCCAA,-0.127
25,GGCGACAA,-0.0104

row,Sequence,PBM E-score
1,CGCGGAAC,0.023
2,CAGGGCGC,0.228
3,AGTGTAAG,-0.051
4,CCCTAAGG,-0.0628
5,ACAAGGGC,-0.063
6,AGCGGAGA,0.0169
7,ATTTTGGC,0.207
8,ACAGGCCA,0.0163
9,ACTTTAAC,-0.14
10,ACTGGTTA,-0.0306
11,CGTCAATC,0.104
12,CAGTTGTA,0.016
13,ATATCCCA,0.134
14,AGAAGTAG,-0.0895
15,ACTCAAGG,0.112
16,GTACAAAA,0.0892
17,TACCCCGA,0.0811
18,CAACGTTC,-0.0822
19,ATTTCACC,0.00723
20,AGGTTGGA,0.0737
21,CTTTCCTA,-0.13
22,CTGTTGAA,0.223
23,ATCGTGTG,0.0839
24,CCGTTGAC,-0.109
25,ACCGTCTC,0.0423

row,Sequence,PBM E-score
1,ACACCTAC,0.0641
2,ATCAAGGA,0.0312
3,ACCGACCA,0.0622
4,AAAGATCA,0.166
5,CCTTTCCC,-0.187
6,ATGTAAAA,0.0496
7,ACGATTGG,-0.046
8,CTGGTGTA,-0.173
9,CCATCTCG,0.109
10,ATGCCTTC,-0.247
11,AGGGAGCG,0.0384
12,AGCGGTTA,-0.17
13,CATACCGG,-0.0888
14,ATATTCAT,0.0301
15,AAAATCAG,-0.0302
16,CTCTTATC,0.151
17,CTTATCAA,0.21
18,ATGGATTG,0.109
19,CAAGGTAA,0.0476
20,AGTACTAC,0.118
21,GCTCTACA,-0.0536
22,GGCTGGCA,-0.276
23,AGAGAAGC,0.0414
24,AACCATCA,-0.0599
25,ATTCATAC,0.238

row,Sequence,PBM E-score
1,ATGCAAAT,0.129
2,ATGAGTGC,0.0317
3,CTAAAAAA,-0.0191
4,ACAACAGG,-0.00056
5,GATTTTAA,0.079
6,AGTGCGAG,-0.0426
7,GACTCCTC,-0.0626
8,AGAGGCCA,-0.107
9,CCGGGATC,0.109
10,TCGTCTAA,-0.116
11,ATCGTGGG,0.0739
12,AGCCCGAT,-0.0777
13,TGTCCCAA,-0.121
14,CGTATCTC,-0.0538
15,ATAGTCTG,0.0549
16,AGCGGTAA,-0.153
17,ACTATACG,-0.0712
18,AGTTAGCA,0.0695
19,ATAGGCAC,-0.0718
20,ACAATAGG,0.00717
21,ACCAGAGG,-0.102
22,AATGCATA,0.0781
23,AATAAAGA,0.0604
24,CACAGCCC,-0.206
25,GTGAAGGA,-0.00784

row,Sequence,PBM E-score
1,CAAACCGA,-0.103
2,ATGAACAC,-0.0153
3,ACGAAAAT,0.151
4,GCAAAGAA,0.157
5,AAAAATTT,0.0458
6,AGGGCAAG,0.114
7,ATACGATG,0.0788
8,AACAGGGG,0.105
9,GCTTCGCA,-0.149
10,GAGCGAGC,0.099
11,ACGTATGG,-0.0224
12,ACTGTCTA,-0.0293
13,ACTTCAAG,-0.0567
14,ACTCTCAG,-0.0774
15,GACAAGCC,0.13
16,CGTCGACA,0.0529
17,ACCCTGCT,0.0589
18,CATACAAG,0.0742
19,CCGGAAAC,-0.0132
20,GGTCAGAA,0.0137
21,GGAATTAA,0.153
22,ATGTGTTG,0.204
23,CTCCGAAC,-0.132
24,CCATGAGC,-0.047
25,AACCCGCA,0.0835

row,Sequence,PBM E-score
1,AGGCTTGG,-0.105
2,AGAAAGTC,0.037
3,ATAAATCG,0.101
4,GAGTCGAC,0.141
5,ACATAGTC,0.055
6,GGTTGCTA,0.0559
7,ACCTGTGC,-0.0445
8,GTCTTCGA,-0.0435
9,CGAGTGAG,0.153
10,AAGAGTGA,-0.0283
11,TCTCCAGA,-0.179
12,CTACCAAA,-0.113
13,AGAACACT,0.138
14,GCGTCATA,0.146
15,GACAGGGC,0.0492
16,ATAGCGAG,-0.0712
17,GACTGGGA,-0.0261
18,AGGTCAAA,-0.0745
19,CTCGTCGC,-0.033
20,ACTCAGCA,0.0463
21,CTCCCAAC,-0.0556
22,TAAAGGGA,0.0314
23,AGATACGG,-0.184
24,AAGTCCGA,-0.0535
25,GATATAGC,-0.0454

row,Sequence,PBM E-score
1,CAAGCCCA,-0.277
2,CAATCGAA,0.258
3,TAGAGGCA,0.0443
4,GTTTCTCA,-0.0499
5,AACTGGTG,-0.0605
6,CACCATCA,-0.00951
7,AAGCTGGA,-0.185
8,GGGATGTA,0.027
9,AAGAGACC,-0.0175
10,ATCCAATG,-0.099
11,CTCATGGA,-0.102
12,GGGGAAAC,0.00088
13,ACGACCGA,-0.037
14,GTATTGAC,-0.0758
15,GACACTCC,-0.0182
16,CCAGGAGC,-0.287
17,AAGAGCCA,0.185
18,GACACATC,-0.00378
19,CCTTTTAA,-0.0347
20,CTGCGATA,0.02
21,CCCTGCCC,-0.1
22,GCTTTGTA,0.143
23,ATTGCATG,0.15
24,CAAGCCGC,-0.15
25,ACTTTGAG,-0.0289

row,Sequence,PBM E-score
1,AACGATCC,-0.227
2,AGTAAATG,0.186
3,ACGGTACA,0.0512
4,ATCCCGTC,-0.0147
5,CAGTCCTC,-0.163
6,AAGGGGGT,-0.298
7,AATGGTCG,-0.163
8,TCATGAGA,-0.024
9,CATGACGA,0.0731
10,CAAAGGAG,0.0625
11,AAACGTGT,-0.217
12,ATAAAGAG,-0.0489
13,GACGGCCA,-0.0494
14,GCGCCGTA,0.164
15,CACTGATG,-0.11
16,ATAAGTCA,0.177
17,TCTGAGAA,0.0851
18,ACTTATAA,0.0623
19,CAAGCCCG,-0.0516

# Part of the list above in another layout:
row | Sequence | PBM E-score
16 | ATAAGTCA | 0.177
17 | TCTGAGAA | 0.0851
18 | ACTTATAA | 0.0623
19 | CAAGCCCG | -0.0516
